{"source": "PubChem BioAssay AID1159579 (Peter MacCallum Cancer Centre, 2015)", "aim": "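Retest candidate lymphatic endothelial migration regulators using several independent siRNAs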 (follow-up of hits)", "cells": "human dermal lymphatic endothelial cells", "reagent": "single siRNA against human genes, 25 nM", "read-out": "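High content images of wound closure area and cell nuclei counts, each the average of two wells, expressed against mock transfection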", "reading the numbers": "migration relative to mock: higher = more migration into the scratch; mean nuclei count: higher = more cells remaining", "active means": "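a ratio of at most 0.6 or at least 1.3 marks altered migration and an active call; a mean nuclei count under 3300 forces an inactive call regardless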", "meaning of the calls": "active = migration changed (impaired or accelerated); inactive = no migration change, or too few cells", "note": "The deposit covers about 2,000 reagents; this is a part drawn at random. In the full data, 549 (27%) are marked active. 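Some migration ratios are negative; siRNAs with too few cells are inactive whatever their migration ratio.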 A number with no mark means an inactive call. The numbers tell different reagents against one gene apart. Not given: the time to read-out."}
{"gene knocked down": "APPL1 (GeneID 26060)", "reagent no.": 1, "migration relative to mock": 0.96, "migration and cell number class": "no change in migration or cell number", "mean nuclei count": 6511}
{"gene knocked down": "APPL1 (GeneID 26060)", "reagent no.": 2, "migration relative to mock": 0.67, "migration and cell number class": "no change in migration or cell number", "mean nuclei count": 5617}
{"gene knocked down": "APPL1 (GeneID 26060)", "reagent no.": 3, "migration relative to mock": 0.74, "migration and cell number class": "no change in migration or cell number", "mean nuclei count": 5447}
{"gene knocked down": "APPL1 (GeneID 26060)", "reagent no.": 4, "migration relative to mock": 0.65, "migration and cell number class": "no change in migration or cell number", "mean nuclei count": 4664}
{"gene knocked down": "MESP2 (GeneID 145873)", "reagent no.": 1, "migration relative to mock": "-0.09 (active)", "migration and cell number class": "migration reduced", "mean nuclei count": 3525}
{"gene knocked down": "MESP2 (GeneID 145873)", "reagent no.": 2, "migration relative to mock": "0.6 (active)", "migration and cell number class": "migration reduced", "mean nuclei count": 5256}
{"gene knocked down": "MESP2 (GeneID 145873)", "reagent no.": 3, "migration relative to mock": 1.21, "migration and cell number class": "no change in migration or cell number", "mean nuclei count": 5744}
{"gene knocked down": "MESP2 (GeneID 145873)", "reagent no.": 4, "migration relative to mock": 0.8, "migration and cell number class": "no change in migration or cell number", "mean nuclei count": 5655}
{"gene knocked down": "MOB3A (GeneID 126308)", "reagent no.": 1, "migration relative to mock": -0.9, "migration and cell number class": "too few cells; migration not scored", "mean nuclei count": 2016}
{"gene knocked down": "MOB3A (GeneID 126308)", "reagent no.": 2, "migration relative to mock": 1.02, "migration and cell number class": "no change in migration or cell number", "mean nuclei count": 5476}
{"gene knocked down": "MOB3A (GeneID 126308)", "reagent no.": 3, "migration relative to mock": "0.4 (active)", "migration and cell number class": "migration reduced", "mean nuclei count": 4387}
{"gene knocked down": "MOB3A (GeneID 126308)", "reagent no.": 4, "migration relative to mock": "0.03 (active)", "migration and cell number class": "migration reduced", "mean nuclei count": 4373}
{"gene knocked down": "FLCN (GeneID 201163)", "reagent no.": 1, "migration relative to mock": "0.48 (active)", "migration and cell number class": "migration reduced", "mean nuclei count": 5046}
{"gene knocked down": "FLCN (GeneID 201163)", "reagent no.": 2, "migration relative to mock": "0.56 (active)", "migration and cell number class": "migration reduced", "mean nuclei count": 3970}
{"gene knocked down": "FLCN (GeneID 201163)", "reagent no.": 3, "migration relative to mock": 1.07, "migration and cell number class": "no change in migration or cell number", "mean nuclei count": 5158}
{"gene knocked down": "FLCN (GeneID 201163)", "reagent no.": 4, "migration relative to mock": "0.42 (active)", "migration and cell number class": "migration reduced", "mean nuclei count": 4020}

The list goes on, starting with the last 2 of the part before.
{"gene knocked down": "FLCN (GeneID 201163)", "reagent no.": 3, "migration relative to mock": 1.07, "migration and cell number class": "no change in migration or cell number", "mean nuclei count": 5158}
{"gene knocked down": "FLCN (GeneID 201163)", "reagent no.": 4, "migration relative to mock": "0.42 (active)", "migration and cell number class": "migration reduced", "mean nuclei count": 4020}
{"gene knocked down": "TMEM71 (GeneID 137835)", "reagent no.": 1, "migration relative to mock": 0.97, "migration and cell number class": "no change in migration or cell number", "mean nuclei count": 6814}
{"gene knocked down": "TMEM71 (GeneID 137835)", "reagent no.": 2, "migration relative to mock": 0.87, "migration and cell number class": "no change in migration or cell number", "mean nuclei count": 4518}
{"gene knocked down": "TMEM71 (GeneID 137835)", "reagent no.": 3, "migration relative to mock": 0.64, "migration and cell number class": "no change in migration or cell number", "mean nuclei count": 5138}
{"gene knocked down": "TMEM71 (GeneID 137835)", "reagent no.": 4, "migration relative to mock": "0.11 (active)", "migration and cell number class": "migration reduced", "mean nuclei count": 3876}
{"gene knocked down": "CTR9 (GeneID 9646)", "reagent no.": 1, "migration relative to mock": 0.82, "migration and cell number class": "no change in migration or cell number", "mean nuclei count": 6356}
{"gene knocked down": "CTR9 (GeneID 9646)", "reagent no.": 2, "migration relative to mock": "0.56 (active)", "migration and cell number class": "migration reduced", "mean nuclei count": 5627}
{"gene knocked down": "CTR9 (GeneID 9646)", "reagent no.": 3, "migration relative to mock": 0.78, "migration and cell number class": "no change in migration or cell number", "mean nuclei count": 6474}
{"gene knocked down": "CTR9 (GeneID 9646)", "reagent no.": 4, "migration relative to mock": 0.68, "migration and cell number class": "no change in migration or cell number", "mean nuclei count": 6039}
